Compound in the experiment: [O-][N+](C(C1=C(C(O)=C2)NC(C(C=C3)=CC=C3Cl)C4C1C=CC4)=C2Cl)=O
Briefly: melting temperature shift (compound 7 minus DMSO); higher = compound stabilises the protein. The note with it: 10 µM. How it is done: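 Thermal proteome profiling (TMT mass spectrometry) in intact DAOY medulloblastoma cells or DAOY lysates treated with 10 µM compound 7 or DMSO, heated at 10 temperatures from 40.5 to 73.8 °C for 3 min. Melting curves were fitted with the Bioconductor TPP package, and the melting point difference between compound and vehicle is reported per protein (single curve per condition).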

Sequences of proteins named here, by UniProt entry; tags and fusion partners are left off. A change or cut given only in a name is not applied to a line headed by its entry.
UniProt Q16204: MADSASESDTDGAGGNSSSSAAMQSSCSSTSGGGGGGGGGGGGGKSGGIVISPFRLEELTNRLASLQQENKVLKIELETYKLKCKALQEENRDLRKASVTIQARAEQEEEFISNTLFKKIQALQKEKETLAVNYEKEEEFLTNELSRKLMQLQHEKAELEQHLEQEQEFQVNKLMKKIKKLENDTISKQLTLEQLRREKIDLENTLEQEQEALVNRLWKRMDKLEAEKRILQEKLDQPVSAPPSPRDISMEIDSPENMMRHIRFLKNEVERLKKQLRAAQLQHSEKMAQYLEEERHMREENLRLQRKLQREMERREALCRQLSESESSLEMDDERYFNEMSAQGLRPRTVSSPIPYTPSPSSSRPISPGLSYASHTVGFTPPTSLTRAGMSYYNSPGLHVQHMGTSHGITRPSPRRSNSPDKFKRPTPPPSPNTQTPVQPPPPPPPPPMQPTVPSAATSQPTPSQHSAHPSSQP
UniProt Q8IVH2: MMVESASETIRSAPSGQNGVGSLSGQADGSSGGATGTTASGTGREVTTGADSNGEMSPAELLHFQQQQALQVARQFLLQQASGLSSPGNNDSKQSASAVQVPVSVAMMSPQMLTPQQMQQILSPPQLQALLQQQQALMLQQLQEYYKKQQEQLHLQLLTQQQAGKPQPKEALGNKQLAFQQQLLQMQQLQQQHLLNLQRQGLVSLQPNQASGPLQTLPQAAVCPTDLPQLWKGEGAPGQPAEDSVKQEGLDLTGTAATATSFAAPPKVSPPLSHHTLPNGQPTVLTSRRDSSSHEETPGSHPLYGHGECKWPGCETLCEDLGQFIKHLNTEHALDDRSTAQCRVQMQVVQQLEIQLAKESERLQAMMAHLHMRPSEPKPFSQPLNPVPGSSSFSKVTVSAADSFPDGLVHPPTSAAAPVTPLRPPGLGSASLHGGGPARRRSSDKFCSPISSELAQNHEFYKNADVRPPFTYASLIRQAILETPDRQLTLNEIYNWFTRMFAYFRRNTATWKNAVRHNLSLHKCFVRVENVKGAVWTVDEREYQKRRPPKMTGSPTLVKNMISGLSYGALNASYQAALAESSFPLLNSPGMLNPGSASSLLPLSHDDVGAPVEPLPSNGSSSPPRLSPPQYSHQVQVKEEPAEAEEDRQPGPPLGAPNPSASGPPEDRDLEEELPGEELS
UniProt P49591: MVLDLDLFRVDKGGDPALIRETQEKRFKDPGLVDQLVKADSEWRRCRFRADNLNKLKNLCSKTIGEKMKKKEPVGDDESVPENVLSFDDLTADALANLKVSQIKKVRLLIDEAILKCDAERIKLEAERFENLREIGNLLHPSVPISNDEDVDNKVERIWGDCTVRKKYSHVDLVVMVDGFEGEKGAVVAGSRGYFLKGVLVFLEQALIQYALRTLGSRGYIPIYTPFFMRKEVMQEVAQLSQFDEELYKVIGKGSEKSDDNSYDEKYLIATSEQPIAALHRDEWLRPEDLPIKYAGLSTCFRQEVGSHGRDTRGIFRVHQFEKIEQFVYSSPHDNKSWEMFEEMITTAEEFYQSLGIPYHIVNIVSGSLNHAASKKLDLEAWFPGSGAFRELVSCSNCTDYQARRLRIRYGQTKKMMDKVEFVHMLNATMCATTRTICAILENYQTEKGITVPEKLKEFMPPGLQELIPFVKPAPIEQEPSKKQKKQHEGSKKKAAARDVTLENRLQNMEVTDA
UniProt P15848: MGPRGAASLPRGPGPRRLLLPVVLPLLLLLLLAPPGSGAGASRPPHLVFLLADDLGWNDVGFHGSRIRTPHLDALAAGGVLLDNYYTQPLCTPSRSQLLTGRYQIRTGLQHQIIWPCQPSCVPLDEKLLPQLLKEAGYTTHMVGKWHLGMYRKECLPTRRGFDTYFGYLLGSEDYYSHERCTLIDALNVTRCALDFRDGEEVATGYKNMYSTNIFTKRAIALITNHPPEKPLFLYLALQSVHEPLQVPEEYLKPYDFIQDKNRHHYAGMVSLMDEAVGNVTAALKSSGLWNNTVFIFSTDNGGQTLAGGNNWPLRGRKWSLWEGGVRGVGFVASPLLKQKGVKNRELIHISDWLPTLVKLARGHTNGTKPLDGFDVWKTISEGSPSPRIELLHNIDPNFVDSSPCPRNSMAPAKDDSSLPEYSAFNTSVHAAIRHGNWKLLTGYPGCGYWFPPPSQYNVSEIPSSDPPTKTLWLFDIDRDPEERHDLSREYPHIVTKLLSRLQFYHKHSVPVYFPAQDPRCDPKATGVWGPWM
UniProt O14656: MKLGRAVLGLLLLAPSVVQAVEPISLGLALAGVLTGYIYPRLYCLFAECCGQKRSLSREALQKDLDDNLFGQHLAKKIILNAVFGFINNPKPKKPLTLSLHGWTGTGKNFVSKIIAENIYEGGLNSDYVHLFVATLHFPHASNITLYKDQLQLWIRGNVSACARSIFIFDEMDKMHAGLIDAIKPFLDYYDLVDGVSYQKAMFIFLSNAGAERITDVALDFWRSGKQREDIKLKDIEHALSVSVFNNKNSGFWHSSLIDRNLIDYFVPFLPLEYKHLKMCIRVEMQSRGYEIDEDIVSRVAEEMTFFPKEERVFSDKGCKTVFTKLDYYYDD
UniProt P53990, whole entry: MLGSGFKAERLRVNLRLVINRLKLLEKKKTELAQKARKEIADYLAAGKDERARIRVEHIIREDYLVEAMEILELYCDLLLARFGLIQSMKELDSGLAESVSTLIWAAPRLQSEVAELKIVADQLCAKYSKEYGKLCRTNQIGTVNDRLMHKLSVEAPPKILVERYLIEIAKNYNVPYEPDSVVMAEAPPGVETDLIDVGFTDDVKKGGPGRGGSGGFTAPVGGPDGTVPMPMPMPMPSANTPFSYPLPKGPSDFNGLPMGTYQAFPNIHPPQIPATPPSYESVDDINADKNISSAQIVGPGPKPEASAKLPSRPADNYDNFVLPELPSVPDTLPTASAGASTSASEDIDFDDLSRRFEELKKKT
UniProt Q92989: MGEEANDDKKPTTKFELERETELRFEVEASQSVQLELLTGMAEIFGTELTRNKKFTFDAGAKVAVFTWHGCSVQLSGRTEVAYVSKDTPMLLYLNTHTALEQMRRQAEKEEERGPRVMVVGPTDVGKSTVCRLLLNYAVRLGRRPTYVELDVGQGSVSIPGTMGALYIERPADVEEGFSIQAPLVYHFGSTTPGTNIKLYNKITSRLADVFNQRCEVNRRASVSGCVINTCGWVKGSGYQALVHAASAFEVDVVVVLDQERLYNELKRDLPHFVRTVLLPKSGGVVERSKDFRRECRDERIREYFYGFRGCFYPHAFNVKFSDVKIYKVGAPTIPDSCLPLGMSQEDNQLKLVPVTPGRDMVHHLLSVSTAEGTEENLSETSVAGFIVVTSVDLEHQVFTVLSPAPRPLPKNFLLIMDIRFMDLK
UniProt Q14123, whole entry: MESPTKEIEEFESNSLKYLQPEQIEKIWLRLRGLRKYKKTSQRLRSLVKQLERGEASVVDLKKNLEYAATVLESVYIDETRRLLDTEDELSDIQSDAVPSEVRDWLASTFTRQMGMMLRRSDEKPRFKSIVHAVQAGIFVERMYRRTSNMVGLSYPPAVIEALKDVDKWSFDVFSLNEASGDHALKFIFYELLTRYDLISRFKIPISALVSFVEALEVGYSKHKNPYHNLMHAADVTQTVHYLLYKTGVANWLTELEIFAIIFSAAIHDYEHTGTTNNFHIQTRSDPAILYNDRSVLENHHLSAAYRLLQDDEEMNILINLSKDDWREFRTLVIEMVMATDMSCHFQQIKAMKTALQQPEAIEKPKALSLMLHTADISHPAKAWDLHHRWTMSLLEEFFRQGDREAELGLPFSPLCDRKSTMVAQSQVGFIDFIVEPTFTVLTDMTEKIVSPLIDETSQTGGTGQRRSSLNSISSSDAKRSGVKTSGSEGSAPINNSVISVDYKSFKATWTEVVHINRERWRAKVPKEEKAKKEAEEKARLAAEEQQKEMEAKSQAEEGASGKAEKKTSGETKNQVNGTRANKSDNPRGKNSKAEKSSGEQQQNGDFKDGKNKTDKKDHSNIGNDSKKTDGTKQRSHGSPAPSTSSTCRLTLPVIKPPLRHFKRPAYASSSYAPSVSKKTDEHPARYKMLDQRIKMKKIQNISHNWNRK
UniProt Q9P0J0, whole entry: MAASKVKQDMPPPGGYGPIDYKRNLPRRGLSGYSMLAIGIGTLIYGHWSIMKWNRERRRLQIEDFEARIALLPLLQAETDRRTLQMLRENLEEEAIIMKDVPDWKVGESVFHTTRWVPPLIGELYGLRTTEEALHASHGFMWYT
UniProt Q71SY5: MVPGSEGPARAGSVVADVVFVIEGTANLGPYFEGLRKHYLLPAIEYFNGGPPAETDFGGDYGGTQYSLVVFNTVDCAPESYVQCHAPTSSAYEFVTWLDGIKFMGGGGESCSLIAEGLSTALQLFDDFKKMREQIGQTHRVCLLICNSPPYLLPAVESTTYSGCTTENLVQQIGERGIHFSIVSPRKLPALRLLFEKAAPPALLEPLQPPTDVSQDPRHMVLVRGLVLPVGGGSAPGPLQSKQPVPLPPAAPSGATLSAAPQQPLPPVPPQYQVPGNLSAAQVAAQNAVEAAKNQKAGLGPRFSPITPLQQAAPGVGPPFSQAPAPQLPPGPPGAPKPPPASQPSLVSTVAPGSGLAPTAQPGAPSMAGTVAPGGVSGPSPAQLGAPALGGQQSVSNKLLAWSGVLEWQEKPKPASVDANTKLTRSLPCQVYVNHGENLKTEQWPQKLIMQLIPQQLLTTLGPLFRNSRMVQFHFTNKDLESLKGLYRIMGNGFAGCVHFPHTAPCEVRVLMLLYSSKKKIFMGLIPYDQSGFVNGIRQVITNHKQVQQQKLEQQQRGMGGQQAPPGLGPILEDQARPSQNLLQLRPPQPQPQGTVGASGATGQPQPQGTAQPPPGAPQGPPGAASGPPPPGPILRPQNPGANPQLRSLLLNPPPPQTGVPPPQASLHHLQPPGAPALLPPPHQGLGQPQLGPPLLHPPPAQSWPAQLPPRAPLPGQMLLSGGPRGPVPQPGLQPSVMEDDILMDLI
UniProt Q712K3: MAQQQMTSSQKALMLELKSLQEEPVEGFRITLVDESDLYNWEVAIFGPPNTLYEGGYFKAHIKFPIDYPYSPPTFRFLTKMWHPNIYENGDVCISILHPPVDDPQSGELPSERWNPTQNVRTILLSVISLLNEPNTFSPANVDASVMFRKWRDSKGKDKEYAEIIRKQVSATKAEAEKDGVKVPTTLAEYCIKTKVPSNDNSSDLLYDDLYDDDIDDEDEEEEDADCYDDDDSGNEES
UniProt Q9H0W9: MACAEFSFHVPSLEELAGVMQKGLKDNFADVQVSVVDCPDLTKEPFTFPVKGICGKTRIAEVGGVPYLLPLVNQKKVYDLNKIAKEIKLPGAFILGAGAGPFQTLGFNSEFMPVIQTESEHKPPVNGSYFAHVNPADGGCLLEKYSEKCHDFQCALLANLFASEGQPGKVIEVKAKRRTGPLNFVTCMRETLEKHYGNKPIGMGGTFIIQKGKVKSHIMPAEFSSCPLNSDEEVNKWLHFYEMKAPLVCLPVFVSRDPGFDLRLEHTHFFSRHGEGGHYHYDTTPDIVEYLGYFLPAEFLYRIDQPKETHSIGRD
UniProt Q9NUP7: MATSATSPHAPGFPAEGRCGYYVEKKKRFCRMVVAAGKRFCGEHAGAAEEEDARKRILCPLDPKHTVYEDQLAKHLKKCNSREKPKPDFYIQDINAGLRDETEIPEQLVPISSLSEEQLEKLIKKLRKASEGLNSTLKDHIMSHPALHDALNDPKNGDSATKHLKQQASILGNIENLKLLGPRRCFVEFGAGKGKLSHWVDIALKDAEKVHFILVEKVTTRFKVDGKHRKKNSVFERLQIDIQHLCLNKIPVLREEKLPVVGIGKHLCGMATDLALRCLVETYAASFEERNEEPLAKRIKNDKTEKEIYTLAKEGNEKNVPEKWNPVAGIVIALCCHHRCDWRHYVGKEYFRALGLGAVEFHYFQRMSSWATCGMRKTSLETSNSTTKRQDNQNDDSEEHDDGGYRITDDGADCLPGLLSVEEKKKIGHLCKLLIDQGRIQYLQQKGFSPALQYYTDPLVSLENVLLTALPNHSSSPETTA
UniProt Q9H9F9, whole entry: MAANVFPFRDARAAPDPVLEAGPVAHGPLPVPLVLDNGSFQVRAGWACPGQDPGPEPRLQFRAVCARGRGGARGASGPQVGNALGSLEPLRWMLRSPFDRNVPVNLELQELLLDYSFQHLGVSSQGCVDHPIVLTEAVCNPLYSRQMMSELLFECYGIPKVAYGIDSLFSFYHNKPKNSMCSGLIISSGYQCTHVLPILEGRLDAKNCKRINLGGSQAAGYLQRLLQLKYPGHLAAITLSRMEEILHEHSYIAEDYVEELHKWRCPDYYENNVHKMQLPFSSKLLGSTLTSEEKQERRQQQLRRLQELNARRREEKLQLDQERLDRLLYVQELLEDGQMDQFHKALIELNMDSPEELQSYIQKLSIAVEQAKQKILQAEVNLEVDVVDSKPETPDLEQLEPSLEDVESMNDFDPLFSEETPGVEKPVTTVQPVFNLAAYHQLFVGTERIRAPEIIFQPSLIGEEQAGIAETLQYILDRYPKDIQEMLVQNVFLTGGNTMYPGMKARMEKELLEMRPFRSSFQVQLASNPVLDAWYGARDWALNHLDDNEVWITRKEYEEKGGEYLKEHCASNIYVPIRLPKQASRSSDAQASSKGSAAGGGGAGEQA

The mark [1] stands for this setting: system: DAOY cell lysate, treatment time: 20 min, 4 °C.
Where [2] appears, read: system: intact DAOY cells, treatment time: 90 min, 37 °C.

Experimental findings from the supplement of paper PMC10060354, “Discovery of a small molecule ligand of FRS2 that inhibits invasion and tumor growth” (Cellular Oncology, 2022) are described below.

Single values are uncertain, as repeats are few or missing.

RSPRY1 (UniProt Q96DX4): under setting [1], the melting temperature shift was -1.89 °C.
Consider CCDC6 (UniProt Q16204), for which the melting temperature shift runs as follows: under setting [1], -1.61 °C; under setting [2], 0.196 °C.
With FOXP4 (UniProt Q8IVH2), the melting temperature shift under setting [1] was found to be 2.1 °C.
In the case of DYNC1I2 (UniProt Q13409), the melting temperature shift by setting is: under setting [1], -0.472 °C; under setting [2], 0.107 °C.
Taken in the same sequence, the figures for UIMC1 (UniProt Q96RL1) were -0.396 °C and 2.25 °C.
Taken in the same sequence, the figures for SARS (UniProt P49591) were -0.461 °C and -0.656 °C.
For UniProt P15848, the melting temperature shift under setting [1] is -0.199 °C.
As to TOR1A (UniProt O14656), the melting temperature shift reads like this: under setting [1], 0.425 °C; under setting [2], -0.684 °C.
The corresponding values for LDLR (UniProt P01130) are 2.67 °C and -0.942 °C.
On to POLE4 (UniProt Q9NR33), for which the melting temperature shift under setting [1] is -1.17 °C.
For the target AIF1L (UniProt Q9BQI0), the melting temperature shift worked out at 4.39 °C under setting [1] and 1.55 °C under setting [2].
Taken in the same sequence, the figures for UniProt O95785 were 1.43 °C and -1.43 °C.
The corresponding values for MYO9B (UniProt Q13459) are -0.767 °C and -0.23 °C.
Take MCC (UniProt P23508): the melting temperature shift under setting [1] amounted to 0.963 °C.
Regarding SBF1 (UniProt O95248), the melting temperature shift under setting [1] was -1.12 °C.
Turning to UniProt Q9UHJ6, the melting temperature shift under setting [1] was -0.975 °C and the melting temperature shift under setting [2] is 1.01 °C.
With UniProt Q6ISB3, the melting temperature shift under setting [2] worked out at 0.352 °C.
For UniProt O15391, under setting [2], the melting temperature shift stood at 1.23 °C.
As for THUMPD3 (UniProt Q9BV44), the melting temperature shift is, setting by setting: under setting [1], -1.23 °C; under setting [2], 0.384 °C.
On to UniProt P0DPD7, for which the melting temperature shift under setting [1] is -0.143 °C.
Consider SLC39A7 (UniProt Q92504), for which the melting temperature shift under setting [1] worked out at 3.03 °C and the melting temperature shift under setting [2] was -3.24 °C.
Consider UniProt Q8TCU4, for which the melting temperature shift under setting [1] was found to be 0.488 °C.
As for IST1 (UniProt P53990), the melting temperature shift by setting is: under setting [1], -0.226 °C; under setting [2], -0.678 °C.
As to EMC8 (UniProt O43402), the melting temperature shift reads like this: under setting [1], 1.26 °C; under setting [2], -0.263 °C.
Consider CLP1 (UniProt Q92989), for which the melting temperature shift under setting [1] is 1.61 °C.
In the case of ACTR1A (UniProt P61163), the melting temperature shift under setting [1] is -0.499 °C and the melting temperature shift under setting [2] stood at 0.0686 °C.
Taken in the same sequence, the figures for NDUFAF3 (UniProt Q9BU61) were 1.29 °C and -0.0637 °C.
Taken in the same sequence, the figures for UniProt Q14123 were -0.616 °C and -0.665 °C.
Taken in the same sequence, the figures for UniProt Q9P0J0 were 2.68 °C and 0.227 °C.
In the case of MED25 (UniProt Q71SY5), under setting [1], the melting temperature shift is -3.54 °C.
For UBE2R2 (UniProt Q712K3), the melting temperature shift is -0.82 °C under setting [1] and -0.859 °C under setting [2].
With UniProt Q9UMR2, the melting temperature shift under setting [1] amounted to 0.429 °C.
Consider THNSL1 (UniProt Q8IYQ7), for which, under setting [1], the melting temperature shift is -0.0239 °C.
As for C11ORF54 (UniProt Q9H0W9), the melting temperature shift was -0.238 °C under setting [1] and -2.37 °C under setting [2].
The corresponding values for MRGBP (UniProt Q9NV56) are 0.553 °C and -3.61 °C.
Take FAM177A1 (UniProt Q8N128): the melting temperature shift under setting [1] is -2.29 °C.
Regarding TRMT13 (UniProt Q9NUP7), the melting temperature shift by setting is: under setting [1], -0.247 °C; under setting [2], 1.29 °C.
In the case of C6ORF106 (UniProt Q9H6K1), the melting temperature shift under setting [2] was 0.436 °C.
Turning to ACTR5 (UniProt Q9H9F9), under setting [1], the melting temperature shift was 0.239 °C.
Same read-out and setting: to TTC17 (UniProt Q96AE7) belongs 1.37 °C.
